Our source for the survivor count and T/C values is PubChem BioAssay AID248 (DTP/NCI, 2004).

For this test, the system named is L1210 leukemia ip in BDF1 mice, survival T/C. In words: NCI In Vivo Anticancer Drug Screen. Data for tumor model L1210 Leukemia (intraperitoneal) in B6D2F1 (BDF1) mice. The note with it: T/C endpoint: mean survival time, higher T/C = longer survival.
[1] abbreviates: dose: 400.0 mg/kg/injection, schedule: Q01DX001 (ip), vehicle: saline.
Setting [2] is: dose: 300.0 mg/kg/injection, schedule: Q01DX001 (ip), vehicle: other.
Setting [3] is: dose: 150.0 mg/kg/injection, schedule: Q01DX001 (ip), vehicle: other.
The mark [4] stands for this setting: dose: 6.25 mg/kg/injection, schedule: Q01DX009 (ip), vehicle: Klucel (hydroxypropylcellulose) (HPC).
[5] abbreviates: dose: 12.5 mg/kg/injection, schedule: Q01DX009 (ip), vehicle: Klucel (hydroxypropylcellulose) (HPC).
[6] abbreviates: dose: 25.0 mg/kg/injection, schedule: Q01DX009 (ip), vehicle: Klucel (hydroxypropylcellulose) (HPC).
Setting [7] is: dose: 200.0 mg/kg/injection, schedule: Q01DX001 (ip), vehicle: saline.
Setting [8] is: dose: 200.0 mg/kg/injection, schedule: Q04DX002 (ip), vehicle: Klucel (hydroxypropylcellulose) (HPC).
[9] abbreviates: dose: 400.0 mg/kg/injection, schedule: Q04DX002 (ip), vehicle: Klucel (hydroxypropylcellulose) (HPC).
Where [10] appears, read: dose: 100.0 mg/kg/injection, schedule: Q01DX009 (ip), vehicle: Klucel (hydroxypropylcellulose) (HPC).
Where [11] appears, read: dose: 200.0 mg/kg/injection, schedule: Q01DX009 (ip), vehicle: Klucel (hydroxypropylcellulose) (HPC).
Where [12] appears, read: dose: 400.0 mg/kg/injection, schedule: Q04DX003 (ip), vehicle: Klucel (hydroxypropylcellulose) (HPC).
[13] abbreviates: dose: 200.0 mg/kg/injection, schedule: Q04DX003 (ip), vehicle: saline.
Where [14] appears, read: dose: 400.0 mg/kg/injection, schedule: Q04DX003 (ip), vehicle: saline.

The structures appear in SMILES notation. The list does not hold the whole screen: it gathers tests that were run many times, whatever their T/C, doses with no T/C, and many T/C values between a quarter and a half above the control. Other doses and runs of a compound stand elsewhere. T/C: endpoint of the treated group in % of that of the vehicle group. Some doses have a count of surviving animals in place of a T/C: the source holds a T/C of zero for them, seemingly a mark for toxic or unscored doses. Some doses without a T/C left all or most animals alive at the check, yet need not have been tolerated: the source hardly ever lists a survival T/C far under the control, and the zero likely stands for such cases as well. Survivors were counted at the toxicity check, usually on the fifth day, unless a day is given; later deaths do not show. Schedules are NCI's codes, read here as Q, the interval in days (D) or hours (H), X, the number of doses. Some schedule codes hold Z or #, which are not explained here. Where survival is the endpoint, this PubChem deposit counts one and a half times the control or more as active, and values a quarter to a half above the control carry no call in these data; other NCI protocols may use other cut-offs. Some T/C values carry the count of animals alive at the toxicity check (mostly the fifth day); where none is given, no animal had died by that day.

For the molecule `CC(=O)CC(=O)N(N=O)c1ccccc1C`, under setting [1], the survivor count is 2 of 4.
Consider `[N-]=[N+]=C1C(Cl)=C(Cl)C(Cl)=C1Cl`, for which, under setting [2], the survivor count is recorded as 3 of 6.
In the case of `Brc1cccc[n+]1-c1cc(-[n+]2ccccc2Br)cc(-[n+]2ccccc2Br)c1`, the survivor count reads like this: (dose: 9.38 mg/kg/injection, schedule: Q01DX001 (ip), vehicle: other) 1 of 6; (dose: 18.75 mg/kg/injection, schedule: Q01DX001 (ip), vehicle: other) 0 of 6; (dose: 37.5 mg/kg/injection, schedule: Q01DX001 (ip), vehicle: other) 0 of 6; (dose: 75.0 mg/kg/injection, schedule: Q01DX001 (ip), vehicle: other) 0 of 6; under setting [3], 0 of 6; under setting [2], 0 of 6.
Take `NC(N)=N/N=C(/c1ccccc1)c1ccccc1N`: the survivor count was 0 of 6 (dose: 420.0 mg/kg/injection, schedule: Q01DX Z (ip), vehicle: methylcellulose (MC)); 0 of 6 (dose: 600.0 mg/kg/injection, schedule: Q01DX Z (ip), vehicle: methylcellulose (MC)); 1 of 6 (dose: 960.0 mg/kg/injection, schedule: Q01DX Z (oral), vehicle: methylcellulose (MC)).
Take `CCC[CH2][Sn]1([CH2]CCC)[O]OC(c2ccccc2)[O]1` (centres undefined): the survivor count runs as follows: under setting [4], 0 of 6; under setting [5], 0 of 6; under setting [6], 0 of 6.
On to `CC(=O)NN`, for which the survivor count is, setting by setting: under setting [7], 3 of 6; under setting [1], 0 of 6.
Regarding `CCc1nc(N)nc(N)c1-c1ccc(Cl)cc1`, the T/C (dose: 50.0 mg/kg/injection, schedule: Q01DX Z (ip), vehicle: carboxymethylcellulose (CMC)) was 132 % of control [4 of 6 alive] and the T/C (dose: 100.0 mg/kg/injection, schedule: Q01DX015 (ip), vehicle: carboxymethylcellulose (CMC)) is 127 % of control.
In the case of `Cc1ccc2ccc3c4ccccc4ccc3[n+]2c1`, the survivor count is 0 of 6 (dose: 40.0 mg/kg/injection, schedule: Q01DX001 (ip), vehicle: saline); 0 of 6 (dose: 80.0 mg/kg/injection, schedule: Q01DX001 (ip), vehicle: saline); 0 of 4 (dose: 100.0 mg/kg/injection, schedule: Q01DX001 (ip), vehicle: saline); 1 of 4 under setting [7]; 1 of 4 under setting [1].
With `CN(C)/N=C\c1ccccc1Cl`, the survivor count (dose: 100.0 mg/kg/injection, schedule: Q01DX009 (ip), vehicle: saline with Tween-80) was 6 of 6; the survivor count (dose: 200.0 mg/kg/injection, schedule: Q01DX009 (ip), vehicle: saline with Tween-80) was 1 of 6; the survivor count (dose: 400.0 mg/kg/injection, schedule: Q04DX003 (ip), vehicle: saline with Tween-80) was 1 of 6.
Regarding `N#CCCn1c(=O)n(CCC#N)c(=O)n(CCC#N)c1=O`, the survivor count was 1 of 3 (dose: 100.0 mg/kg/injection, schedule: Q04DX002 (ip), vehicle: Klucel (hydroxypropylcellulose) (HPC)); 3 of 3 under setting [8]; 3 of 3 under setting [9].
Take `O=C(O)c1ccc(CNCc2ccccc2)cc1`: for the setting “dose: 300.0 mg/kg/injection, schedule: Q01DX001 (ip), vehicle: saline”, the survivor count is recorded as 2 of 6.
Regarding `N#Cc1ccc(Br)cc1[N+](=O)[O-]`, the survivor count is given as 6 of 6 under setting [5]; 6 of 6 under setting [6]; 2 of 6 (dose: 50.0 mg/kg/injection, schedule: Q01DX009 (ip), vehicle: Klucel (hydroxypropylcellulose) (HPC)); 1 of 6 under setting [10]; 0 of 6 under setting [11]; 0 of 6 under setting [12].
As to `CNC(=O)Oc1c([N+](=O)[O-])c([N+](=O)[O-])cc2ccccc12`, the survivor count under setting [3] is 3 of 6 and the survivor count under setting [2] is 0 of 6.
Regarding `CCN(CC)CCCNC(c1ccccc1)C(Cl)(Cl)Cl` (centres undefined), the survivor count is 1 of 4 under setting [7] and 0 of 4 under setting [1].
Turning to `Cn1cnc([N+](=O)[O-])c1[Se]c1ncnc2c1ccn2C1OC(CO)C(O)C1O` (centres undefined), the survivor count is, setting by setting: (dose: 100.0 mg/kg/injection, schedule: Q01DX005 (ip), vehicle: saline) 2 of 6; (dose: 200.0 mg/kg/injection, schedule: Q01DX005 (ip), vehicle: saline) 0 of 6.
Regarding `O=[N+]([O-])c1cccc2cccc([N+](=O)[O-])c12`, for the setting “dose: 400.0 mg/kg/injection, schedule: Q01DX009 (ip), vehicle: saline”, the survivor count was 6 of 6.
As to `CSc1cc(=O)n2c3ccccc3c3ccnc1c32`, the survivor count is listed as 1 of 6 under setting [7] and 0 of 6 under setting [1].
As to `CON(C)C(=O)CCN1CC1`, the survivor count was 3 of 6 under setting [13] and 0 of 6 under setting [14].
On to `CN(C)CCCN(C)CCCCN(C)CCCN(C)C`, for which the survivor count by setting is: under setting [7], 2 of 4; under setting [1], 2 of 4.
For the molecule `COc1ccccc1OCC(O)COc1ccccc1OC`, the survivor count is, setting by setting: (dose: 100.0 mg/kg/injection, schedule: Q04DX003 (ip), vehicle: saline) 6 of 6; under setting [13], 6 of 6; under setting [14], 6 of 6.
Consider `CC(=O)Nc1ccc(S(=O)(=O)Nc2cc(C)c(C)cc2C)cc1`, for which the survivor count under setting [9] is given as 3 of 3.
With `CN(C)C(N)=Nc1ccc(Cl)cc1`, the survivor count is, setting by setting: under setting [10], 0 of 6; under setting [11], 0 of 6; (dose: 400.0 mg/kg/injection, schedule: Q01DX009 (ip), vehicle: Klucel (hydroxypropylcellulose) (HPC)) 0 of 6.
Turning to `CC[NH-].CC[NH-].[Cl][Pt+2][Cl]`, the T/C is, setting by setting: (dose: 6.0 mg/kg/injection, schedule: Q01DX001 (ip), vehicle: other) 125 % of control; (dose: 6.0 mg/kg/injection, schedule: Q01DX009 (ip), vehicle: other) 133 % of control; under setting [4], 140 % of control; (dose: 9.0 mg/kg/injection, schedule: Q01DX009 (ip), vehicle: Klucel (hydroxypropylcellulose) (HPC)) 126 % of control; (dose: 12.0 mg/kg/injection, schedule: Q04DX003 (ip), vehicle: Klucel (hydroxypropylcellulose) (HPC)) 125 % of control; (dose: 12.5 mg/kg/injection, schedule: Q04DX003 (ip), vehicle: Klucel (hydroxypropylcellulose) (HPC)) 127 % of control. Moreover, the survivor count is 5 of 6 under setting [6]; 2 of 6 (dose: 50.0 mg/kg/injection, schedule: Q04DX003 (ip), vehicle: Klucel (hydroxypropylcellulose) (HPC)); 1 of 5 (dose: 100.0 mg/kg/injection, schedule: Q04DX003 (ip), vehicle: Klucel (hydroxypropylcellulose) (HPC)); 0 of 6 (dose: 200.0 mg/kg/injection, schedule: Q04DX003 (ip), vehicle: Klucel (hydroxypropylcellulose) (HPC)); 0 of 6 under setting [12].
Turning to `OB(O)c1ccccc1`, the survivor count (dose: 400.0 mg/kg/injection, schedule: Q01DX009 (ip), vehicle: gum acacia) is on record as 0 of 6.
For `O=S1(=O)C=C(Br)C1`, the survivor count is, setting by setting: under setting [8], 1 of 3; under setting [9], 2 of 3.
As for `CC(=O)CCCc1ccccc1`, under setting [14], the survivor count is listed as 2 of 6.
For `Cc1ccccc1N=Cc1ccccc1O.[Co]`, the survivor count (dose: 400.0 mg/kg/injection, schedule: Q01DX001 (ip), vehicle: other) is 1 of 6.
Turning to `Cc1ccc(C(O)CCN2CCOCC2)c(C)c1` (centres undefined), the survivor count under setting [1] is listed as 2 of 4.
Consider `NC(=O)c1c(Br)c(Br)c(Br)c(Br)c1C(=O)O` (tested in a mixture with another compound), for which the survivor count (dose: 200.0 mg/kg/injection, schedule: Q04DX003 (ip), vehicle: saline with Tween-80) is on record as 6 of 6.
